SMILES strings stand for the structures. Where a name gives a salt, the structure may show the parent alone. This is one part of the list. Single values are uncertain here, since repeats match poorly.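 Human fetal ventral-midbrain neural progenitor line ReNCell VM, differentiated without mitogens. Images stained for doublecortin (early neurons) or tyrosine hydroxylase (dopaminergic neurons) were scored by blinded raters against untreated wells (0 = no change). Repeats and both raters were averaged, and compounds averaging 2 or higher were picked as hits for retesting.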

The values below come from the supplement of paper PMC4635364.

The subject of one assay is ReNCell VM. Briefly: neuronal differentiation score (DCX+ cell fraction vs untreated, manual image score) (score (-3 to 3)); higher = more neuronal differentiation. As to conditions: library: LOPAC; 2 uM; 2 weeks.
Take `O=C1N=C(O)NC1(c1ccccc1)c1ccccc1` [Phenytoin sodium]: the neuronal differentiation score was inactive: 0.

For the compound `CN[C@H](CC(=O)O)C(=O)O` [N-Methyl-D-aspartic acid], the neuronal differentiation score is inactive: 0. The same measure, in the same setting: with `O=c1ccc2ccc(O)c(O)c2o1` [Daphnetin] the figure was inactive: 0. `Cn1c(=O)c2[nH]c(-c3ccccc3)nc2n(C)c1=O` [1,3-Dimethyl-8-phenylxanthine]: the neuronal differentiation score is inactive: 0.

The assay is the same for the next values; noted with them: library: Prestwick; 2 uM; 2 weeks.
Take `CN1[C@@H]2CC[C@H]1C[C@@H](OC(=O)C(O)c1ccccc1)C2` (mixture of isomers) [Homatropine hydrobromide (R,S)]: the neuronal differentiation score was inactive: 0. The same measure, in the same setting: with `CC(=O)Nc1ccc(OCC(O)CNC(C)C)cc1` (configuration not stated) [Practolol] the figure was inactive: 0; with `O=C1c2c(O)cccc2Cc2cccc(O)c21` [Anthralin], inactive: 0. As for `O=C(Cn1ccnc1[N+](=O)[O-])NCCO` [Etanidazole], the neuronal differentiation score is inactive: 0. Still for that read-out and setting: with `Nc1ccn([C@@H]2O[C@H](CO)[C@@H](O)C2(F)F)c(=O)n1` [Gemcitabine] the figure was inactive: 0; with `CN1CCCCC1CCN1c2ccccc2Sc2ccc([S+](C)[O-])cc21` (configuration not stated) [Mesoridazine besylate], inactive: 0. Take `Cc1c(N(C)C)c(=O)n(-c2ccccc2)n1C` [Amidopyrine]: the neuronal differentiation score is inactive: 0. Same read-out and setting: with `CC1(C)OC(=O)NC1=O` [Dimethadione] the figure was inactive: 0; with `Oc1c(I)cc(Cl)c2cccnc12` [Clioquinol], inactive: 1.

The assay is the same for the next values; noted with them: library: Spectrum; 2 uM; 2 weeks.
Regarding `CCOC(=O)C1=C(C)NC(C)=C(C(=O)OC)C1c1cccc(Cl)c1Cl` (configuration not stated), the neuronal differentiation score was inactive: 1. For the compound `Cc1cc(C2CCCCC2)n(O)c(=O)c1`, the neuronal differentiation score was inactive: 0. On the same count and under the same terms, with `COc1cc2c(cc1OC)C(=O)C(CC1CCN(Cc3ccccc3)CC1)C2` (configuration not stated) the figure was active: 3; with `COc1ccccc1N1CCN(CCCNc2cc(=O)n(C)c(=O)n2C)CC1`, inactive: 0. Still for that read-out and setting: as for `C[C@]12CCC(=O)C=C1[C@@H]1C[C@@H]1[C@H]1[C@@H]3[C@@H]4C[C@@H]4[C@@]4(CCC(=O)O4)[C@@]3(C)CC[C@@H]12`, the figure is inactive: 1; as for `CN(C)c1cnccn1`, inactive: 0; as for `COc1cc2c(cc1OC)C1(O)C(=O)c3ccc(O)c(C(=O)O)c3OC1CO2` (configuration not stated), inactive: 0. Still for that read-out and setting: as for `Cc1c(OCC(F)(F)F)ccnc1C[S+]([O-])c1nc2ccccc2[nH]1` (configuration not stated), the figure is inactive: 0; as for `CCOC(=O)[C@H](CCc1ccccc1)N[C@@H](C)C(=O)N1Cc2ccccc2C[C@H]1C(=O)O`, inactive: 0; as for `CC(C)(C)NCC(O)COc1cccc2c1CC(O)C(O)C2` (configuration not stated), inactive: 0.

For the compound `CCCCC(CC)CCC(CC(C)C)OS(=O)(=O)O` (configuration not stated), the neuronal differentiation score is inactive: 0. On the same count and under the same terms, as for `CO[C@H]1/C=C/O[C@@]2(C)Oc3c(C)c(O)c4c(O)c(c(/C=N/N5CCN(C)CC5)c(O)c4c3C2=O)NC(=O)/C(C)=C\C=C\[C@H](C)[C@H](O)[C@@H](C)[C@@H](O)[C@@H](C)[C@H](OC(C)=O)[C@@H]1C`, the figure is inactive: 0.

As for `c1ccc(CN(CC2=NCCN2)c2ccccc2)cc1`, the neuronal differentiation score is inactive: 0. As to `Clc1ccc(CCC(Cn2ccnc2)Sc2c(Cl)cccc2Cl)cc1` (configuration not stated), the neuronal differentiation score was inactive: 1. Same read-out and setting: as for `COC(=O)C1=C(C)NC(C)=C(C(=O)OCCN(C)Cc2ccccc2)C1c1cccc([N+](=O)[O-])c1` (configuration not stated), the figure is inactive: 0; as for `OCCN1C[C@H](O)[C@@H](O)[C@H](O)[C@H]1CO`, inactive: 0. Same read-out and setting: with `COC1=C(OC)C(=O)C(CCCCCCCCCCO)=C(C)C1=O` the figure was inactive: 0. Consider `COc1c2ccoc2nc2c(OC)c(OCC(O)C(C)(C)O)ccc12` (configuration not stated), for which the neuronal differentiation score was inactive: 0. On to `CC(C)CC(NC(=O)[C@H](C)N)C(=O)O` (mixture of isomers), for which the neuronal differentiation score is inactive: 0. Still for that read-out and setting: with `O=c1cc(-c2ccccc2)oc2cccc(O)c12` the figure was inactive: -1.

The same assay, now with this note: library: Tocriscreen; 2 uM; 2 weeks.
On to `CN(C)[C@@H]1CCc2[nH]c3ccc(NC(=O)c4ccc(F)cc4)cc3c2C1`, for which the neuronal differentiation score was inactive: 0.

Regarding `CCCCCCCCCCCCCCCC(=O)C(F)(F)F`, the neuronal differentiation score is inactive: 0. The same measure, in the same setting: with `O=C(Nc1cc(C(F)(F)F)cc(C(F)(F)F)c1)c1cc(Cl)ccc1O` the figure was inactive: 0; with `COc1ccc(C2CC(c3c(O)cc(C)oc3=O)=NCCS2)c(OC)c1` (configuration not stated), inactive: 0.

As for `c1cnc(N2CCN(Cc3ccc4c(c3)OCO4)CC2)nc1` [Piribedil], the neuronal differentiation score is inactive: 0. Consider `CC(=O)NCCc1c(Cc2ccccc2)[nH]c2ccccc12` [Luzindole], for which the neuronal differentiation score was inactive: 0.

The test system of another assay is ReNCell VM. Briefly: dopaminergic neuron differentiation score (TH+ cell fraction vs untreated, manual image score) (score (0 to 3)); higher = more TH+ dopaminergic neuron differentiation. As to conditions: library: LOPAC; 2 uM; 4 weeks; BDNF 10 ng/ml + GDNF 10 ng/ml.
For `O=C1N=C(O)NC1(c1ccccc1)c1ccccc1` [Phenytoin sodium], the “dopaminergic neuron differentiation score” value is inactive: 0. Same read-out and setting: with `CN[C@H](CC(=O)O)C(=O)O` [N-Methyl-D-aspartic acid] the figure was inactive: 0; with `O=c1ccc2ccc(O)c(O)c2o1` [Daphnetin], inactive: 0.

As to `Cn1c(=O)c2[nH]c(-c3ccccc3)nc2n(C)c1=O` [1,3-Dimethyl-8-phenylxanthine], the “dopaminergic neuron differentiation score” value was inactive: 0.

Staying with this assay, now noted: library: Prestwick; 2 uM; 4 weeks; BDNF 10 ng/ml + GDNF 10 ng/ml.
Consider `CN1[C@@H]2CC[C@H]1C[C@@H](OC(=O)C(O)c1ccccc1)C2` (mixture of isomers) [Homatropine hydrobromide (R,S)], for which the “dopaminergic neuron differentiation score” value was inactive: 0. The same measure, in the same setting: with `CC(=O)Nc1ccc(OCC(O)CNC(C)C)cc1` (configuration not stated) [Practolol] the figure was inactive: 0; with `O=C1c2c(O)cccc2Cc2cccc(O)c21` [Anthralin], inactive: 0; with `O=C(Cn1ccnc1[N+](=O)[O-])NCCO` [Etanidazole], inactive: 0. Take `Nc1ccn([C@@H]2O[C@H](CO)[C@@H](O)C2(F)F)c(=O)n1` [Gemcitabine]: the “dopaminergic neuron differentiation score” value is inactive: 0. The same measure, in the same setting: with `CN1CCCCC1CCN1c2ccccc2Sc2ccc([S+](C)[O-])cc21` (configuration not stated) [Mesoridazine besylate] the figure was inactive: 0. Take `Cc1c(N(C)C)c(=O)n(-c2ccccc2)n1C` [Amidopyrine]: the “dopaminergic neuron differentiation score” value is inactive: 0. Consider `CC1(C)OC(=O)NC1=O` [Dimethadione], for which the “dopaminergic neuron differentiation score” value was inactive: 0. In the case of `Oc1c(I)cc(Cl)c2cccnc12` [Clioquinol], the “dopaminergic neuron differentiation score” value is inactive: 0.
